Assay results as given in PMC12064789.
No constants are given. Whether binding was seen depends on the method and setting. For some assays here: Binding seen in cells or lysates may run through a third protein. Some binding calls cover weakened binding; strength is not graded here. For some assays here: Sequences can lack the tags named with a protein.

The chains behind the UniProt entries cited, without tags or fusion partners.
UniProt P67809: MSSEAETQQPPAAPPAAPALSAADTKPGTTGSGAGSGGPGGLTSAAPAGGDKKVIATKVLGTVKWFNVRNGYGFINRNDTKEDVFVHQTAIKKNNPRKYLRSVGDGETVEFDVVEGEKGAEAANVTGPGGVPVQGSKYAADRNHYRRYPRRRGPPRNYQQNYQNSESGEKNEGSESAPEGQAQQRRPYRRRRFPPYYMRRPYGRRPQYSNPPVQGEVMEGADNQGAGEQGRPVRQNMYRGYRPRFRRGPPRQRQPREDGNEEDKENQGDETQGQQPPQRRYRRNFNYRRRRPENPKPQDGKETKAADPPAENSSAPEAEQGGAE

How the values were obtained:
[1] = molecular target: T1, GST-CILP1 fusion protein (UniProt O75339); test: pull-down; purified GST-CILP1 (or GST) on glutathione agarose, purified His-YBX1 added for 3 h at 4 °C in 20 mM Tris, 100 mM NaCl, 1 mM EDTA, 1 mM DTT; four washes, Western blot; both purified
T1 sequence: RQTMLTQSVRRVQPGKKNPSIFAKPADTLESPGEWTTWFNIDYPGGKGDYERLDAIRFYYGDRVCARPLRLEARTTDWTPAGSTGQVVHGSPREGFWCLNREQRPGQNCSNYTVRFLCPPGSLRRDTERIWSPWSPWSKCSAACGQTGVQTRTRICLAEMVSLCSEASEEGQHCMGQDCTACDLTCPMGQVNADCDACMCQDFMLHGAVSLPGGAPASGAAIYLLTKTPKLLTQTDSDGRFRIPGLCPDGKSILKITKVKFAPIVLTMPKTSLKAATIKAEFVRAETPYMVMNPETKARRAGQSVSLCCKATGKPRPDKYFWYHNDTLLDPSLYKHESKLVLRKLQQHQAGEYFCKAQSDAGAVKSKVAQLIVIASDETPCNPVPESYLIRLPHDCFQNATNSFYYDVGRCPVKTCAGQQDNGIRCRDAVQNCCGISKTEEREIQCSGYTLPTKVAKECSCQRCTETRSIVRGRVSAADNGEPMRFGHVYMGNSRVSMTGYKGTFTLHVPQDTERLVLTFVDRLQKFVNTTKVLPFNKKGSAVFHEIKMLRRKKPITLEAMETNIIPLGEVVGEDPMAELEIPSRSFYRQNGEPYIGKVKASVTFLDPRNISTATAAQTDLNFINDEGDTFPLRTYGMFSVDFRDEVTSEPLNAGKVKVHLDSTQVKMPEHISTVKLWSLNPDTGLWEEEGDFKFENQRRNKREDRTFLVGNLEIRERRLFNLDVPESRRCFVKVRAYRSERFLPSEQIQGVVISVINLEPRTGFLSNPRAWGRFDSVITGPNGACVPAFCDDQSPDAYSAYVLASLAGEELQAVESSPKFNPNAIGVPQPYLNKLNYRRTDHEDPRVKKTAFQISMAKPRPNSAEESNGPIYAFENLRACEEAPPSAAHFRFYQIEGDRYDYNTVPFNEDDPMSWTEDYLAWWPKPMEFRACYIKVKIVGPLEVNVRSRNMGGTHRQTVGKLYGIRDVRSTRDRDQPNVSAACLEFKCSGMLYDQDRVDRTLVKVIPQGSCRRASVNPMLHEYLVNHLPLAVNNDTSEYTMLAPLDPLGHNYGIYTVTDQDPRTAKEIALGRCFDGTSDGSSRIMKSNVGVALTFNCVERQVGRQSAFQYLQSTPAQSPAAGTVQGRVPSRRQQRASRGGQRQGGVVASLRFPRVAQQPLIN

[2] = molecular target: T2, Cartilage Intermediate Layer Protein 1 (CILP1) (human (endogenous in HSFs)) (UniProt O75339); test: co-IP; whole-cell lysates of HSFs in IP lysis buffer, 5 ug IP antibody overnight at 4 °C, protein A/G agarose beads for 4 h, five washes, Western blot
T2 sequence: T1 sequence

binding [1] | binding [2] | Substance
binds | – | His-YBX1 fusion protein (from UniProt P67809 1-324)
– | binds | Y-box-binding protein 1 (YBX1) (from UniProt P67809 1-324)
